The target of assay [1] is Transcription factor EB (human (endogenous in HEK-293T)) (UniProt P19484). Briefly: proximity ligation; Duolink in situ PLA Kit (Red) on HEK-293T cells; also after control siRNA or ROCK1 siRNA.
Assay [2] has as its target Rho-associated coiled-coil kinase 1 (human (endogenous in HEK-293T)) (UniProt Q13464). The experiment in a line: co-IP; HEK-293T lysate (Pierce IP lysis buffer); anti-ROCK1 antibody overnight at 4 °C, protein A/G agarose; immunoblotting.
The target in assay [3] is TFEB (mouse hippocampus) (mouse (endogenous in hippocampus of APP/PS1 mice)) (UniProt Q9R210). The experiment in a line: proximity ligation; PLA in the hippocampal CA3 region of APP/PS1 mice microinjected with AAV-sh-Con or AAV-sh-ROCK1.

Sequences of proteins named here, by UniProt entry; tags and fusion partners are left off.
UniProt P19484: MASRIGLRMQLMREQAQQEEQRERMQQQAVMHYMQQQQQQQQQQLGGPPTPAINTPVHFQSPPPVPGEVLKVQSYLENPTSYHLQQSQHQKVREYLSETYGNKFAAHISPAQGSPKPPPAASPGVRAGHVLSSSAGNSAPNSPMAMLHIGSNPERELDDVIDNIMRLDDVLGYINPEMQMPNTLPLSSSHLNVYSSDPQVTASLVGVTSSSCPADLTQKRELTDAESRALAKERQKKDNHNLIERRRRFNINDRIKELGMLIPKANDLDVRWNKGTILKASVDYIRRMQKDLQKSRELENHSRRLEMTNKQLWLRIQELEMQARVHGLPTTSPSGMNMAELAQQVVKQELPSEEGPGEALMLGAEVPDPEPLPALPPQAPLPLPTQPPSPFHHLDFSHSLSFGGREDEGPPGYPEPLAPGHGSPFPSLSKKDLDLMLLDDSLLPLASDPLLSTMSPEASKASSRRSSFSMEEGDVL
UniProt Q13464: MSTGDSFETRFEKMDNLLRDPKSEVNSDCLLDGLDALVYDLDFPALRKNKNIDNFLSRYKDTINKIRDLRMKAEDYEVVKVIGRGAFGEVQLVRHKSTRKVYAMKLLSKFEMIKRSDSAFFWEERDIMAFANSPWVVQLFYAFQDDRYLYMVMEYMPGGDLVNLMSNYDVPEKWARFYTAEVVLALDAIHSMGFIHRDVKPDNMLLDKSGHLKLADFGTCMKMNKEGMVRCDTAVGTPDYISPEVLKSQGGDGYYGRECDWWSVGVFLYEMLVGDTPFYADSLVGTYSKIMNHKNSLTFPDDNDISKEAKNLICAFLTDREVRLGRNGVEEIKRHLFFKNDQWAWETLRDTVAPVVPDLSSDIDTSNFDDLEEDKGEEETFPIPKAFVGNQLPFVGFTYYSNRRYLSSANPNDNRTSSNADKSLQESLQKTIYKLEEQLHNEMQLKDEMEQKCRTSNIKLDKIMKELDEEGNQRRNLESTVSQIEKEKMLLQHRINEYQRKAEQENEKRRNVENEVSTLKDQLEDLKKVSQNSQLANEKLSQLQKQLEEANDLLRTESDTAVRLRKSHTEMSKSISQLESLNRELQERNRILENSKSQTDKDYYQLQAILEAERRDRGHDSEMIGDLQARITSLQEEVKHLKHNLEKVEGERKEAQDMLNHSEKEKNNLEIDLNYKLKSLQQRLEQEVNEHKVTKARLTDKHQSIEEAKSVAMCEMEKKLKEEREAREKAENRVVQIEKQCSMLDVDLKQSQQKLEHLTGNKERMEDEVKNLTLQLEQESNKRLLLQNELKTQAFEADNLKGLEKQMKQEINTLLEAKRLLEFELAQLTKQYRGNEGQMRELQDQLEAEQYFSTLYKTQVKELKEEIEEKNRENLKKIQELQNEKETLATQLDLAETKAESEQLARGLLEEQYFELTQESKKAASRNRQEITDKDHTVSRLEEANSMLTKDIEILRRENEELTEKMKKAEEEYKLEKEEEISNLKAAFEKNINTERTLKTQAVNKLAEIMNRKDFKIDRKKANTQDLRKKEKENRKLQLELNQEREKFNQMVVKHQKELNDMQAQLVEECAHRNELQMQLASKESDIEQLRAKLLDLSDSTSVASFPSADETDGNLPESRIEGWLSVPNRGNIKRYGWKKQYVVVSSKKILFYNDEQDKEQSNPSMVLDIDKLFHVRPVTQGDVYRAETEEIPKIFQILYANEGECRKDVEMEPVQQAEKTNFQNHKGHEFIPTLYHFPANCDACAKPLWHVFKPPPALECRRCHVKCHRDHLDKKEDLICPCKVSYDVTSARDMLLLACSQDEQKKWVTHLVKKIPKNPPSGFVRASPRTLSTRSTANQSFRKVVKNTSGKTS
UniProt Q9R210: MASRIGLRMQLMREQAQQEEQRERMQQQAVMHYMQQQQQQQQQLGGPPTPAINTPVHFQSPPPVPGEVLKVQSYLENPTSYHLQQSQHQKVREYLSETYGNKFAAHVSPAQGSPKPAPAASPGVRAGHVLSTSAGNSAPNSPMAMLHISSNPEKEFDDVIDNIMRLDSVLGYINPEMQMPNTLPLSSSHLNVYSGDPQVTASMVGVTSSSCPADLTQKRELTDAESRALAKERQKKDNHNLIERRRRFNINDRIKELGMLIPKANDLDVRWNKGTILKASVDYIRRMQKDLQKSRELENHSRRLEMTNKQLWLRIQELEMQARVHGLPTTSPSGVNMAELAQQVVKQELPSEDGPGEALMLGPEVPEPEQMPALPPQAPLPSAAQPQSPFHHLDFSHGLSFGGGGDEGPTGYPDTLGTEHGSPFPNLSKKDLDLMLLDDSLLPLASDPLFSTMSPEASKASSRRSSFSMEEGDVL
UniProt O75116: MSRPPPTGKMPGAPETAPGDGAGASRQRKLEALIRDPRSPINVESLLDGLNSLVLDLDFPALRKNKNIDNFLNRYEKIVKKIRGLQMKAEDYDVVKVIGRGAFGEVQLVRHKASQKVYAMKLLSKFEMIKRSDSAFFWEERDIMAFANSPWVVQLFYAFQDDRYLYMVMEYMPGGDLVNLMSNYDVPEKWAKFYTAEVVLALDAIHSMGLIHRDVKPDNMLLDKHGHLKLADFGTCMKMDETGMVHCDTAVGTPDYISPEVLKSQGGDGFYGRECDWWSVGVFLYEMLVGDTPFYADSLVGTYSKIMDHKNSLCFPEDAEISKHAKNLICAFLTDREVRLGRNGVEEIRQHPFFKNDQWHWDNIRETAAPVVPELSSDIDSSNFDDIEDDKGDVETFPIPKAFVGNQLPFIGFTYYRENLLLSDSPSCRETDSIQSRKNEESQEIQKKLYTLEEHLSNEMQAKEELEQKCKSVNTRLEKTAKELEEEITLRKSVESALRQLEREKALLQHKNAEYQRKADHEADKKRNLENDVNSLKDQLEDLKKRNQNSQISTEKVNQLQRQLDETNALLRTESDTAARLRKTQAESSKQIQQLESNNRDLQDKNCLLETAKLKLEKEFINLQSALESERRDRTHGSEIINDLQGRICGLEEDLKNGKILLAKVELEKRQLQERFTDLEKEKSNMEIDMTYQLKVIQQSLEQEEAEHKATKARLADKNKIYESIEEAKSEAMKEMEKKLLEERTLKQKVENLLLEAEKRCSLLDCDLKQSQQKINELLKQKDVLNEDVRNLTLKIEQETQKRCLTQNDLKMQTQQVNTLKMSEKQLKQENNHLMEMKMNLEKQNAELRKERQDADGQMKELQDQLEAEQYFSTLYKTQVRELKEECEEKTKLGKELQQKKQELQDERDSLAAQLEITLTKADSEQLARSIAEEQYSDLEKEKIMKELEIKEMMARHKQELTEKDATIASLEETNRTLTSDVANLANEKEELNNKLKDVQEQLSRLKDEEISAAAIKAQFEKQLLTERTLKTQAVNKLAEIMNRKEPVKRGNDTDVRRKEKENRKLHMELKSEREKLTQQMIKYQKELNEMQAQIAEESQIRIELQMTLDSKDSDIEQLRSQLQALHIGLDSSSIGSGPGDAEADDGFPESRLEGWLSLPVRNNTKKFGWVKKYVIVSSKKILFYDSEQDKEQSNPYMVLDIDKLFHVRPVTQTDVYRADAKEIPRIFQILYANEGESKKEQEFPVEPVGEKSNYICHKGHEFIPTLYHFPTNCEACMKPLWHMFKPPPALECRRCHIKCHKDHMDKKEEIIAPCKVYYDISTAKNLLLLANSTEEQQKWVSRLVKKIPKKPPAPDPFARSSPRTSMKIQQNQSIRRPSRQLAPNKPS
UniProt P70335: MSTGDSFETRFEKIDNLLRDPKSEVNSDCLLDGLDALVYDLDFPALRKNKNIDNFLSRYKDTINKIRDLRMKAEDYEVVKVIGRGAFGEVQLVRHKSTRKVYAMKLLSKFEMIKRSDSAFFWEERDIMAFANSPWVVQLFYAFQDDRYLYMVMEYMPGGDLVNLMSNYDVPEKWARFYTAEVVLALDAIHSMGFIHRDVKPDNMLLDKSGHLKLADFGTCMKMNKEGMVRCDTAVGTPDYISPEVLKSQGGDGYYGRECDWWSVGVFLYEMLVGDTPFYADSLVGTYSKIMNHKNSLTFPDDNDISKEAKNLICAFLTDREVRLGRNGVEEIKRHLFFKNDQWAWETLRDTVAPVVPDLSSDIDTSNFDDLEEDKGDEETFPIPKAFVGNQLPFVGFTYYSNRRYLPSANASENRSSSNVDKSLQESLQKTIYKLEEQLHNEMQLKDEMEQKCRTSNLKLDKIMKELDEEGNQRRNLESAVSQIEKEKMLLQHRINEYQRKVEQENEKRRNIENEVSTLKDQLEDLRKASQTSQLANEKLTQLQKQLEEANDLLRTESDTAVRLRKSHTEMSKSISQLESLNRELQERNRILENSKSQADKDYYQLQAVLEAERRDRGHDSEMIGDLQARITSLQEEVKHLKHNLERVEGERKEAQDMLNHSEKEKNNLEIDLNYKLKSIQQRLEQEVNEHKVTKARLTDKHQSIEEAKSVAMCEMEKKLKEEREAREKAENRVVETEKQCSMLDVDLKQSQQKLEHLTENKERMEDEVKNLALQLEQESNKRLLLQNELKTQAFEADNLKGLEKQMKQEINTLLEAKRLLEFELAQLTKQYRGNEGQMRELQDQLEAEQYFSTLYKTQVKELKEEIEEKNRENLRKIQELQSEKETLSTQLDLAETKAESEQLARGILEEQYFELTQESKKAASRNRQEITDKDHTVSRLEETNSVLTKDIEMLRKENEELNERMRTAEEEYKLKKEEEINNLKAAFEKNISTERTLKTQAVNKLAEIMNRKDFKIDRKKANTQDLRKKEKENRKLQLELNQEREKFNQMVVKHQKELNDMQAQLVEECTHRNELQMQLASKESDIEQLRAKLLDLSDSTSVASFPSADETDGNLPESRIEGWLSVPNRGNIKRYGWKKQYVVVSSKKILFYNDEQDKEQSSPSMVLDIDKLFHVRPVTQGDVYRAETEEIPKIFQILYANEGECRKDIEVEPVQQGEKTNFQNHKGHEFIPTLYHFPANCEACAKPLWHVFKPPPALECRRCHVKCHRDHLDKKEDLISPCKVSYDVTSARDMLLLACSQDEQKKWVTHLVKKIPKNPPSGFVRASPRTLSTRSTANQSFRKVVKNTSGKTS

Results are given in words; binding and its absence hold for the method and conditions named. Binding seen in cells or lysates may run through a third protein. Some results given as binding are weak or reduced against the parent protein; the word gives no strength.

Consider “ROCK2 (from UniProt O75116 1-1388) (enzyme)”, for which the binding result in assay [1] is recorded as “no binding”.
With “cation-independent mannose-6-phosphate receptor (from UniProt P11717 41-2491)”, the binding result in assay [2] is “no binding”.
In the case of “ROCK1 (mouse hippocampus) (from UniProt P70335 1-1354) (enzyme)”, the binding result in assay [3] is on record as “binds”.
